These results are taken from PubChem BioAssay AID493014 (National Center for Advancing Translational Sciences (NCATS), 2011).

This experiment can be described thus: qHTS Assay to Find Inhibitors of Chronic Active B-Cell Receptor Signaling. To be noted: ABC-DLBCL IkBa-CBG/CBR reporter, luminescence ratio (green luciferase fused to IkBa over red control in TMD8 lymphoma cells), 4 h. A digest of the protocol:
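Compounds up to 46 uM were incubated four hours with TMD8 cells whose green CBG68 luciferase is fused to IkappaBalpha; red CBR luminescence normalised the signal, and concentration-effect curves were fitted to fusion, red and ratio data.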

Where [1] appears, read: measured here: CBR red luminescence, cell number.
Where [2] appears, read: measured here: IkBa-CBG green luminescence.

The list shows a part of the results. The main result of the screen is listed elsewhere. These columns were measured beside it and carry no call. The list favours compounds with an active or inconclusive main result. The note in brackets gives the kind of curve behind each potency; many fits are weak.

As usually defined, the AC50 is the concentration at which the activity in the assay is half-maximal. As for `COc1ccc(-c2nnc(SCC(=O)c3ccc[nH]3)o2)cc1`, the AC50 under setting [1] is 5.17 µM [falling, partial curve, poor fit]. For the compound `Cc1cccc(N2CCN(C(=O)c3cccn4c(=O)c5c(C)c(C)sc5nc34)CC2)c1C`, the AC50 under setting [1] was 29.1 µM [rising, single point]. On the same count and under the same terms, in the case of `O=C(Cc1ccccc1)NNC(=S)Nc1ccccc1` it was 10 µM [rising, single point]; in that of `Cc1cccc(OCC(=O)Nc2ccc3c(c2)nc(CN2CCCCC2)n3C)c1`, 35.5 µM [falling, partial curve, poor fit]. `O=C(CCl)N1N=C(c2cccs2)CC1c1ccco1` (stereo not given): the AC50 was 10 µM [falling, partial curve, poor fit] under setting [1] and 8.91 µM [rising, partial curve, poor fit] under setting [2]. In the case of `COc1cccc([C@@H]2Oc3ccc(Br)cc3C(=O)[C@H]2OC(=O)NC2CCCC2)c1`, the AC50 under setting [1] is 29.1 µM [falling, single point]. Same read-out and setting: in the case of `COC(=O)c1ccc2c(=O)n(Cc3ccc(C(=O)NC(C)C)cc3)c(=S)[nH]c2c1` it was 1.58 µM [falling, partial curve, poor fit]; in that of `O=C(CSCc1ccc(C(=O)O)cc1)Nc1ccccc1`, 1.26 µM [rising, full curve]; in that of `CNc1nc(NCCOC23CC4CC(CC(C4)C2)C3)nc(OCC(F)(F)F)n1`, 17.8 µM [rising, partial curve, poor fit]. `Cc1ccc2cc(CN(CCCO)S(=O)(=O)c3cccc4nsnc34)c(=O)[nH]c2c1C`: the AC50 under setting [1] was 12.6 µM [rising, partial curve, poor fit]. Turning to `O=C(/C=C/c1ccncc1)c1ccc2c(c1)OCCO2`, the AC50 reads like this: under setting [1], 14.1 µM [falling, partial curve, poor fit]; under setting [2], 12.6 µM [rising, partial curve, poor fit].

As for `O=C(Nc1nc2ccccc2[nH]1)C1CCC1`, the AC50 under setting [1] is 11.2 µM [falling, partial curve]. With `NC1=NC(=O)/C(=C/c2ccsc2)S1`, under setting [1], the AC50 was 20 µM [falling, single point]. Still for that read-out and setting: in the case of `C=CCNc1nc(Nc2ccc([N+](=O)[O-])cc2)nc(OC)n1` it was 11.2 µM [rising, partial curve, poor fit]; in that of `COc1ccc(C(=O)/C=C/c2ccccc2)c(OC)c1`, 17.8 µM [falling, single point]. Still for that read-out and setting: in the case of `CCc1ccc(NC(=O)c2sccc2-n2cccc2)cc1` it was 20.6 µM [rising, single point]; in that of `Cc1ccccc1C(=O)NNc1ncnc2c1cnn2-c1cccc(Cl)c1`, 35.5 µM [falling, single point]; in that of `O=C(N/N=C1\CCc2ccccc21)c1ccc(O)cc1`, 0.794 µM [falling, full curve]. On the same count and under the same terms, in the case of `O=C(COc1ccccc1F)NC1CCN(Cc2ccccc2)CC1` it was 32.6 µM [rising, partial curve, poor fit]. Consider `C[C@@H](C(=O)Nc1nc(-c2ccccn2)cs1)N1C(=O)C2CCCCC2C1=O` (stereo not given in full), for which the AC50 under setting [1] was 1.46 µM [falling, partial curve, poor fit]. As to `CCOC(=O)C1CCN(C(=O)c2cc3cc(Cl)ccc3[nH]2)CC1`, under setting [1], the AC50 was 2.24 µM [falling, partial curve, poor fit].

For the compound `COc1ccc(OC)c(-c2nc3c(C)n[nH]c(=O)c3[nH]2)c1`, the AC50 is, setting by setting: under setting [1], 0.517 µM [falling, full curve, poor fit]; under setting [2], 0.58 µM [rising, full curve, poor fit]. For the compound `O=C(NC(NC(=S)Nc1ccccc1Cl)C(Cl)(Cl)Cl)c1cccc(Cl)c1` (stereo not given), the AC50 by setting is: under setting [1], 29.1 µM [falling, single point]; under setting [2], 20.6 µM [rising, partial curve, poor fit]. With `O=C(Nc1cccc(NC(=O)c2cccs2)c1)c1ccco1`, the half-maximal activity concentration (AC50) under setting [1] was 5.17 µM [falling, partial curve]. On to `CCOc1ccc(NC(=O)NCc2ccco2)cc1`, for which the AC50 under setting [1] is 8.91 µM [falling, partial curve, poor fit]. Consider `COC(=O)c1ccccc1NC(=O)CC(=O)Nc1ccccc1C(=O)OC`, for which the AC50 under setting [1] is 0.447 µM [rising, full curve, poor fit]. Same read-out and setting: then `COc1ccc(S(=O)(=O)NC2CCCCC2)c(C)c1C`, with 0.82 µM [falling, partial curve, poor fit]. Still for that read-out and setting: then `Cc1ccc(CNC(=O)Cn2cccc2)cc1`, with 5.62 µM [falling, single point]; and `CN1CCN(C(c2ccc(C(F)(F)F)cc2)c2ccc3cccnc3c2O)CC1` (stereo not given), with 35.5 µM [falling, single point].

`O=C(NCc1ccc2c(c1)OCO2)C1CCCCC1`: under setting [1], the AC50 was 11.2 µM [rising, partial curve, poor fit]. For the compound `COc1ccc(NC(=S)NNC(=O)Cn2nc([N+](=O)[O-])cc2C)cc1`, the AC50 runs as follows: under setting [1], 22.4 µM [falling, single point]; under setting [2], 35.5 µM [rising, partial curve, poor fit]. Take `CN(Cc1cc(=O)[nH]c2ccccc12)C(=O)c1ccccc1`: the AC50 under setting [1] is 2.24 µM [falling, full curve].

As to `Cc1ccc(S(=O)(=O)Nc2ccccc2CNc2ncc(Br)cc2Br)cc1`, the AC50 under setting [1] is 11.6 µM [falling, partial curve, poor fit]. On the same count and under the same terms, in the case of `CCN(CC)C(=O)CC(c1ccc(OC)cc1)c1c(OC)cc(OC)c2ccc(=O)oc12` (stereo not given) it was 15.8 µM [rising, partial curve, poor fit]. Regarding `Cc1ccc(OCC(O)CN2C(=O)NC(C)(C)C2=O)c(C)c1` (stereo not given), the AC50 under setting [2] was 20 µM [falling, single point]. Take `CCCCc1nn(-c2cc(Cl)ccc2OC)c2c1C(=O)CCC2`: under setting [1], the AC50 was 32.6 µM [falling, single point]. On the same count and under the same terms, then `COc1ccccc1NC(=O)Nc1nc(CC(=O)Nc2cc(F)ccc2F)cs1`, with 16.4 µM [falling, single point].

`CC(=O)N1CCC(C(=O)Nc2nc(-c3ccccc3)ns2)CC1`: the AC50 runs as follows: under setting [1], 16.4 µM [falling, partial curve, poor fit]; under setting [2], 3.66 µM [rising, full curve]. Consider `CCS(=O)(=O)c1ccc2oc(Nc3ccc(OC)cc3)nc2c1`, for which the AC50 under setting [1] is 3.16 µM [rising, full curve, poor fit].
